{"source": "PubChem BioAssay AID1224831 (NIAID, 2016)", "aim": "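Genes that support or restrain LPS-induced TNF-alpha reporter activity in macrophage-like cells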 (follow-up of hits)", "cells": "human THP-1 B5 monocytic leukaemia cells carrying a TNF promoter luciferase reporter, made macrophage-like with PMA", "reagent": "single siRNA against human genes, 50 nM", "time to read-out": "about 68 h of knock-down, then 4 h LPS", "treatment": "LPS (Salmonella minnesota, TLR-grade) at 10 ng/ml for 4 h; PMA 5 ng/ml present during knock-down", "measured": "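TNF promoter reporter read as dual luciferase ratio after 4 h LPS, normalised per plate to its median, given as replicate mean robust z-score per siRNA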", "scale": "TNF reporter z-score: higher = stronger LPS-induced TNF reporter signal; z-score, median over gene's siRNAs: higher = stronger TNF reporter signal across the gene's siRNAs", "call rule": "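Two-sided call: reduced or raised TNF reporter signal counts as active once mean z reaches about -1 or below, or about 1.5 or above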", "calls": "active = changed TNF reporter (either direction); inactive = little change", "note": "Here is a random part of about 3,500 reagents. 731 of all reagents (21%) count as active. 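Active means either lowered or raised reporter signal; the gene-median score did not drive the per-siRNA calls.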"}
{"target": "LRRC73", "PubChem SID": "SID315488220", "TNF reporter z-score, replicate mean": -0.96, "z-score, median over gene's siRNAs": -0.805, "Outcome": "inactive"}
{"target": "LRRC73", "PubChem SID": "SID315488221", "TNF reporter z-score, replicate mean": -2.61, "z-score, median over gene's siRNAs": -0.805, "Outcome": "active"}
{"target": "LRRC73", "PubChem SID": "SID315488222", "TNF reporter z-score, replicate mean": 1.61, "z-score, median over gene's siRNAs": -0.805, "Outcome": "active"}
{"target": "LRRC73", "PubChem SID": "SID315488223", "TNF reporter z-score, replicate mean": -0.87, "z-score, median over gene's siRNAs": -0.805, "Outcome": "inactive"}
{"target": "LRRC73", "PubChem SID": "SID315488224", "TNF reporter z-score, replicate mean": -0.74, "z-score, median over gene's siRNAs": -0.805, "Outcome": "inactive"}
{"target": "LRRC73", "PubChem SID": "SID315488225", "TNF reporter z-score, replicate mean": 0.92, "z-score, median over gene's siRNAs": -0.805, "Outcome": "inactive"}
{"target": "CINP", "PubChem SID": "SID315485559", "TNF reporter z-score, replicate mean": 0.16, "z-score, median over gene's siRNAs": 0.195, "Outcome": "inactive"}
{"target": "CINP", "PubChem SID": "SID315485560", "TNF reporter z-score, replicate mean": 0.23, "z-score, median over gene's siRNAs": 0.195, "Outcome": "inactive"}
{"target": "CINP", "PubChem SID": "SID315485561", "TNF reporter z-score, replicate mean": -0.4, "z-score, median over gene's siRNAs": 0.195, "Outcome": "inactive"}
{"target": "CINP", "PubChem SID": "SID315485562", "TNF reporter z-score, replicate mean": -0.2, "z-score, median over gene's siRNAs": 0.195, "Outcome": "inactive"}
{"target": "CINP", "PubChem SID": "SID315485563", "TNF reporter z-score, replicate mean": 1.03, "z-score, median over gene's siRNAs": 0.195, "Outcome": "inactive"}
{"target": "CINP", "PubChem SID": "SID315485564", "TNF reporter z-score, replicate mean": 2.74, "z-score, median over gene's siRNAs": 0.195, "Outcome": "active"}
{"target": "KRT2", "PubChem SID": "SID315482532", "TNF reporter z-score, replicate mean": 0.53, "z-score, median over gene's siRNAs": 0.42, "Outcome": "inactive"}
{"target": "KRT2", "PubChem SID": "SID315482533", "TNF reporter z-score, replicate mean": -2.39, "z-score, median over gene's siRNAs": 0.42, "Outcome": "active"}
{"target": "KRT2", "PubChem SID": "SID315482534", "TNF reporter z-score, replicate mean": 0.57, "z-score, median over gene's siRNAs": 0.42, "Outcome": "inactive"}
{"target": "KRT2", "PubChem SID": "SID315482535", "TNF reporter z-score, replicate mean": 0.31, "z-score, median over gene's siRNAs": 0.42, "Outcome": "inactive"}
{"target": "KRT2", "PubChem SID": "SID315482536", "TNF reporter z-score, replicate mean": 1.76, "z-score, median over gene's siRNAs": 0.42, "Outcome": "active"}
{"target": "KRT2", "PubChem SID": "SID315482537", "TNF reporter z-score, replicate mean": -0.65, "z-score, median over gene's siRNAs": 0.42, "Outcome": "inactive"}

Records above whose gene name begins with C or c:
{"target": "CINP", "PubChem SID": "SID315485559", "TNF reporter z-score, replicate mean": 0.16, "z-score, median over gene's siRNAs": 0.195, "Outcome": "inactive"}
{"target": "CINP", "PubChem SID": "SID315485560", "TNF reporter z-score, replicate mean": 0.23, "z-score, median over gene's siRNAs": 0.195, "Outcome": "inactive"}
{"target": "CINP", "PubChem SID": "SID315485561", "TNF reporter z-score, replicate mean": -0.4, "z-score, median over gene's siRNAs": 0.195, "Outcome": "inactive"}
{"target": "CINP", "PubChem SID": "SID315485562", "TNF reporter z-score, replicate mean": -0.2, "z-score, median over gene's siRNAs": 0.195, "Outcome": "inactive"}
{"target": "CINP", "PubChem SID": "SID315485563", "TNF reporter z-score, replicate mean": 1.03, "z-score, median over gene's siRNAs": 0.195, "Outcome": "inactive"}
{"target": "CINP", "PubChem SID": "SID315485564", "TNF reporter z-score, replicate mean": 2.74, "z-score, median over gene's siRNAs": 0.195, "Outcome": "active"}
